Reference: article PMC12455589, “Abundant bacterial nucleoid-associated protein H-NS limits plasmid transfer through mechanical modification of DNA”
Where a chain is given by its changes, count along the chain named. For at least one entry, the source does not settle the construct or the ends of the probe. For some assays here: The comparison behind a weaker result is the experiment's own reference, which may not be listed here. Where a protein sequence is shown, tags need not be part of it. For some assays here: At least one verdict rests on a figure or table, not on a statement of the authors.

What was measured:
H-NS G113C = target: T1, H-NS G113C (UniProt P0ACF8); test: EMSA; conditions: 10 mM Mg2+; EMSA: 10 mM Tris-HCl pH 7.9, 125 mM KCl, 10 mM MgCl2, 0.1 mM DTT, 2.5% glycerol, 30 min, room temperature; recombinant protein; protein details: His6 (N-terminal); probe letters rebuilt from the primers and the genome
T1 sequence (looked up, limits assumed): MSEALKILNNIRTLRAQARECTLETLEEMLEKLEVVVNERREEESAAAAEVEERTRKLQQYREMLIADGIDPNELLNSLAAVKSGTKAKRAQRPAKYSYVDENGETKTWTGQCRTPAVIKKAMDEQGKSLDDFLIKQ

H-NS = target: T2, H-NS (UniProt P0ACF8); test: EMSA; conditions: 10 mM Mg2+; EMSA: 10 mM Tris-HCl pH 7.9, 125 mM KCl, 10 mM MgCl2, 0.1 mM DTT, 2.5% glycerol, 30 min, room temperature; recombinant protein; protein details: His6 (N-terminal); probe letters rebuilt from the primers and the genome
T2 sequence (looked up, limits assumed): T1 sequence (looked up, limits assumed) with C113G

Sequence: TTGTTCTCCTTCATATGCTCCGACATTTCTCCTGCATTTCTATACGTCGGCACACTTCCGTTATCGGTAAAAACAAAGAAAAAATACGGCGTAATTAATTCAATAATCACATTCACTGCAAAAATATATTCATTGGTTTAATACAATTAACCTATACATATATTAAGATGTGTTGAATTGTTTAAAGACAATAATGCATGCATTTCAAATCTGCAAGTTATTCGTTTTATTATTAAAGAAACTTTTAGTTATAATAATTACCATGAATTTTATTACATAAAATATTCATACTGTGAATATAAAATCTCATACCGGGAAATTAAAAGAAGATGTACATTGTGCACCTTCCCTACTTAAGTAGGGATAAACCGTTATTGGTCTTATTATCGTCATTGATAACAATCATTCCCGAA (double strand) [motif probe (intact HBS)]
- binding result (H-NS G113C): binds more weakly
- binding result (H-NS): binds
